# PubChem BioAssay AID1259262 – Sanger Institute | 2017
# Screen: 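Kinase knock-downs that strengthen killing by targeted cancer drugs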 (follow-up of hits)
# Cells: LS513 human colorectal cancer cells
# Reagents: single siRNA against human genes
# Challenge: anchor drug or DMSO vehicle: cetuximab 5 µg/ml, trametinib 10 nM or BYL719 1 µM; exposure length not given
# Read-out: 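Cell viability relative to non-targeting control siRNA, and a synergy score for each anchor drug, averaged over replicates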
# Direction: synergy score with trametinib and synergy score with BYL719 and synergy score with cetuximab: higher = stronger synergistic loss of viability with drug; viability, siRNA with trametinib: higher = more viable cells
# Active means: 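Called active if at least one of the three drugs gives a synergy score over 0.10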
# Meaning of the calls: active = synergy with at least one drug; inactive = no synergy with any drug
# Shown is a random part of 160 reagents. Over the whole deposit, 93 (58%) got an active call. 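Calls refer to single siRNAs; gene-level validation required two or more siRNAs in several lines; synergy score formula unstated.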 The numbers tell different reagents against one gene apart. Further read-outs or replicates are left out here. Reagent sequences are not shown. The record does not give: the amount of reagent, the time to read-out.
target gene,siRNA no.,synergy score with trametinib,synergy score with BYL719,synergy score with cetuximab,"viability, siRNA with trametinib (fraction of control)",Call
COASY (GeneID 80347),1,0.134,-0.0746,-0.062,0.386,active
COASY (GeneID 80347),2,0.0122,-0.0451,-0.148,0.301,inactive
COASY (GeneID 80347),3,0.167,-0.151,-0.000546,0.0859,active
COASY (GeneID 80347),4,0.216,0.0151,-0.0234,0.109,active
MARK3 (GeneID 4140),1,0.13,-0.116,0.0567,0.355,active
MARK3 (GeneID 4140),2,0.128,-0.0503,-0.11,0.415,active
MARK3 (GeneID 4140),3,-0.121,-0.174,-0.0758,0.532,inactive
MARK3 (GeneID 4140),4,0.309,-0.0976,-0.00782,0.157,active
GUCY2D (GeneID 3000),1,0.14,-0.0831,0.0189,0.404,active
GUCY2D (GeneID 3000),2,0.341,-0.011,0.0382,0.203,active
GUCY2D (GeneID 3000),3,0.189,-0.0643,-0.0125,0.198,active
GUCY2D (GeneID 3000),4,0.0913,-0.112,-0.0537,0.452,inactive
HSPB8 (GeneID 26353),1,0.245,-0.253,-0.154,0.136,active
HSPB8 (GeneID 26353),2,-0.115,-0.0685,-0.0733,0.659,inactive
HSPB8 (GeneID 26353),3,0.0487,-0.19,-0.169,0.459,inactive
HSPB8 (GeneID 26353),4,0.128,-0.0407,-0.222,0.246,active
SYK (GeneID 6850),1,0.114,0.0869,-0.0248,0.252,active
SYK (GeneID 6850),2,0.171,-0.156,0.0182,0.217,active
SYK (GeneID 6850),3,0.293,-0.04,-0.00585,0.0735,active
SYK (GeneID 6850),4,0.146,-0.144,-0.105,0.398,active

Sorted by “synergy score with BYL719” (ascending): some entries from above
target gene,siRNA no.,synergy score with trametinib,synergy score with BYL719,synergy score with cetuximab,"viability, siRNA with trametinib (fraction of control)",Call
SYK (GeneID 6850),2,0.171,-0.156,0.0182,0.217,active
SYK (GeneID 6850),3,0.293,-0.04,-0.00585,0.0735,active
SYK (GeneID 6850),1,0.114,0.0869,-0.0248,0.252,active
